Data reported in patent publication US7705189B2, “Calixarene compound, process for producing the same, intermediate therefor, and composition thereof” (JSR Corporation, priority 2004, dated 2010).

Experiment: Cationic photopolymerization with DPSP photoacid generator, conversion by FT-IR
Details: for Conversion rate in cationic photopolymerization: irradiation for 360 seconds, 360 nm, 15 mW/cm^2

## C=COCCOc1cc(OCCOC=C)c2cc1C1CCCC3c4cc(c(OCCOC=C)cc4OCCOC=C)C4CCCC5c6cc(c(OCCOC=C)cc6OCCOC=C)C(CCCC6c7cc(c(OCCOC=C)cc7OCCOC=C)C(CCCC7c8cc(c(OCCOC=C)cc8OCCOC=C)C(CCCC(c8cc(c(OCCOC=C)cc8OCCOC=C)C(CCCC2c2cc4c(OCCOC=C)cc2OCCOC=C)c2cc7c(OCCOC=C)cc2OCCOC=C)c2cc1c(OCCOC=C)cc2OCCOC=C)c1cc6c(OCCOC=C)cc1OCCOC=C)c1cc5c(OCCOC=C)cc1OCCOC=C)c1cc3c(OCCOC=C)cc1OCCOC=C [T3-6]
1 mol % DPSP
  Conversion rate in cationic photopolymerization: 40%
5 mol % DPSP, irradiated 360 seconds, then heated at 150° C.
  Conversion rate after heating the irradiated film: did not improve
5 mol % DPSP
  Conversion rate in cationic photopolymerization: 80%
